The test system of the experiment is HEK293A TEAD-LUC reporter. Description: TEAD-luciferase reporter activity (YAP activation), robust Z score vs plate; higher = stronger YAP/TEAD activation. The conditions noted are these: 24 h.

Here are results for 28 molecules from the supplement of paper PMC10735217.

Counter-ions that a name gives are not always drawn. Some of the results follow. This data set is noisy: repeats of one test often differ as much as different tests do.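 In a drug-repurposing library screen, luminescence reads luciferase driven by eight TEAD-binding elements, stably integrated into human kidney-derived cells. Compounds scoring over five robust Z scores above the plate mean are called hits.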

With `COc1ccc2cccc(CCNC(C)=O)c2c1` [agomelatine], the TEAD-luciferase reporter activity is inactive: -0.835 (compound concentration: 200 nM), inactive: -0.187 (compound concentration: 2 uM) and inactive: 0.142 (compound concentration: 10 uM).

Take `CCOc1cc(CN2CCOCC2)cc2[nH]c(=O)c3c(c12)NCCC3`: the TEAD-luciferase reporter activity by setting is: (compound concentration: 200 nM) inactive: 0.345; (compound concentration: 2 uM) inactive: 0.137; (compound concentration: 10 uM) inactive: 1.64.

Turning to `CSc1ccc(-c2ccc(N3C[C@H](CNC(C)=S)OC3=O)cc2)nn1`, the TEAD-luciferase reporter activity runs as follows: (compound concentration: 200 nM) inactive: -1.21; (compound concentration: 2 uM) inactive: -1.85; (compound concentration: 10 uM) inactive: -1.1.

Take `CCC(C)(Oc1ccc(C2(c3ccc(OC(C)(CC)C(=O)O)cc3)CCCCC2)cc1)C(=O)O` (stereo unspecified) [clinofibrate]: the TEAD-luciferase reporter activity reads like this: (compound concentration: 200 nM) inactive: -1.18; (compound concentration: 2 uM) inactive: -1.85; (compound concentration: 10 uM) inactive: -2.49.

For `Cc1cc(C)c(N)c(C#Cc2cccc(F)c2)n1`, the TEAD-luciferase reporter activity is inactive: -1.93 (compound concentration: 200 nM), inactive: 1.12 (compound concentration: 2 uM) and inactive: 2.19 (compound concentration: 10 uM).

Regarding `NCCS(=O)(=O)O` [Taurine], the TEAD-luciferase reporter activity is inactive: 1.35 (compound concentration: 200 nM), inactive: -0.268 (compound concentration: 2 uM) and inactive: -1.76 (compound concentration: 10 uM).

For the molecule `C#CC(C)(C)NCC(O)COc1ccc(NC(=O)C(C)C)cc1C#N` (stereo unspecified), the TEAD-luciferase reporter activity reads like this: (compound concentration: 200 nM) inactive: 0.1; (compound concentration: 2 uM) inactive: -1.25; (compound concentration: 10 uM) inactive: -1.81.

Turning to `Nc1nc2c(ncn2COC(CO)CO)c(=O)[nH]1` [ganciclovir], the TEAD-luciferase reporter activity was inactive: -0.0283 (compound concentration: 200 nM), inactive: -0.227 (compound concentration: 2 uM) and inactive: -0.604 (compound concentration: 10 uM).

As to `O=C1NCc2ccccc2CC12CCCN2Cc1ccc(Br)cc1` (stereo unspecified), the TEAD-luciferase reporter activity runs as follows: (compound concentration: 200 nM) inactive: -3.13; (compound concentration: 10 uM) inactive: 4.5.

With `CC(C)[C@@H](CC[C@@H](C)[C@H]1CC[C@H]2[C@@H]3[C@H](O)C[C@H]4C[C@@H](NCCCNCCCCNCCCN)CC[C@]4(C)[C@H]3CC[C@]12C)OS(=O)(=O)O`, the TEAD-luciferase reporter activity was inactive: -0.674 (compound concentration: 200 nM) and inactive: 0.759 (compound concentration: 10 uM).

Take `CC(C)[C@@H](CC[C@@H](C)[C@H]1CC[C@H]2[C@@H]3[C@H](O)C[C@H]4C[C@@H](NCCCNCCCCNCCCN)CC[C@]4(C)[C@H]3CC[C@]12C)OS(=O)(=O)O` [Trodusquemine]: the TEAD-luciferase reporter activity (compound concentration: 2 uM) is inactive: -0.662.

In the case of `COc1cc2c(cc1C(N)=O)CC[C@@H]1[C@@H]2CC[C@]2(C)C=CC[C@@H]12`, the TEAD-luciferase reporter activity reads like this: (compound concentration: 200 nM) inactive: 0.957; (compound concentration: 2 uM) inactive: 3.64; (compound concentration: 10 uM) active: 5.43.

With `CC(C)Cc1ccc(C(C)C(=O)O)cc1` (stereo unspecified), the TEAD-luciferase reporter activity reads like this: (compound concentration: 200 nM) inactive: -0.922; (compound concentration: 10 uM) inactive: 0.113.

Take `CC(C)Cc1ccc(C(C)C(=O)O)cc1` (stereo unspecified) [ibuprofen arginine]: the TEAD-luciferase reporter activity (compound concentration: 2 uM) was inactive: -1.08.

For the molecule `CCNC(=O)NCc1cccc(Cl)c1` [lozilurea], the TEAD-luciferase reporter activity reads like this: (compound concentration: 200 nM) inactive: -0.396; (compound concentration: 2 uM) inactive: -1.7; (compound concentration: 10 uM) inactive: 1.87.

On to `CN(C)CCn1ccc2ccc(NC(=N)c3cccs3)cc21`, for which the TEAD-luciferase reporter activity (compound concentration: 200 nM) is inactive: -0.707, the TEAD-luciferase reporter activity (compound concentration: 2 uM) is inactive: 0.529 and the TEAD-luciferase reporter activity (compound concentration: 10 uM) is inactive: -1.22.

`CC1=C(c2ccc(OC(=O)C(C)(C)C)cc2)[C@@H](c2ccc(OCCN3CCCCC3)cc2)Oc2cc(OC(=O)C(C)(C)C)ccc21`: the TEAD-luciferase reporter activity (compound concentration: 200 nM) is inactive: -1.15, the TEAD-luciferase reporter activity (compound concentration: 2 uM) is inactive: 1.79 and the TEAD-luciferase reporter activity (compound concentration: 10 uM) is inactive: 0.55.

Take `C=C/C=C/C[C@@H](C)[C@@H](O)[C@H]1C(=O)N[C@@H](CC)C(=O)N(C)CC(=O)N(C)[C@@H](CC(C)C)C(=O)N[C@@H](C(C)C)C(=O)N(C)[C@@H](CC(C)C)C(=O)N[C@@H](C)C(=O)N[C@H](C)C(=O)N(C)[C@@H](CC(C)C)C(=O)N(C)[C@@H](CC(C)C)C(=O)N(C)[C@@H](C(C)C)C(=O)N1C` [voclosporin]: the TEAD-luciferase reporter activity reads like this: (compound concentration: 200 nM) inactive: -2.19; (compound concentration: 2 uM) inactive: -0.501; (compound concentration: 10 uM) inactive: -0.312.

With `Nc1cccc2c(=O)[nH][nH]c(=O)c12` [Luminol sodium salt], the TEAD-luciferase reporter activity reads like this: (compound concentration: 200 nM) inactive: -1.27; (compound concentration: 2 uM) inactive: -0.0766; (compound concentration: 10 uM) inactive: 0.948.

On to `O=C(O)CCCCC1CCSS1` (stereo unspecified) [thioctic acid], for which the TEAD-luciferase reporter activity (compound concentration: 2 uM) was inactive: -0.989.

`O=C(O)CCCCC1CCSS1` (stereo unspecified) [thioctic acid, Meda]: the TEAD-luciferase reporter activity runs as follows: (compound concentration: 200 nM) inactive: -0.0847; (compound concentration: 10 uM) inactive: -0.723.

In the case of `Fc1ccc2nc(CCC#Cc3ccccn3)cn2c1` [dipraglurant], the TEAD-luciferase reporter activity (compound concentration: 200 nM) was inactive: -0.594, the TEAD-luciferase reporter activity (compound concentration: 2 uM) is inactive: 0.574 and the TEAD-luciferase reporter activity (compound concentration: 10 uM) is inactive: 0.858.

On to `Cc1onc(-c2c(Cl)cccc2Cl)c1C(=O)NC1C(=O)N2C1SC(C)(C)C2C(=O)O` (stereo unspecified) [dicloxacillin], for which, under “compound concentration: 2 uM”, the TEAD-luciferase reporter activity is inactive: -1.1.

For `Cc1onc(-c2c(Cl)cccc2Cl)c1C(=O)NC1C(=O)N2C1SC(C)(C)C2C(=O)O` (stereo unspecified) [dicloxacillin, Himedics], the TEAD-luciferase reporter activity is, setting by setting: (compound concentration: 200 nM) inactive: -1.19; (compound concentration: 10 uM) inactive: -3.68.

Consider `CC1(C)S[C@@H]2[C@H](NC(=O)C(c3ccccc3)S(=O)(=O)[O-])C(=O)N2[C@H]1C(=O)[O-]` (stereo partly specified) [sulbenicillin], for which the TEAD-luciferase reporter activity (compound concentration: 200 nM) is inactive: 1.2, the TEAD-luciferase reporter activity (compound concentration: 2 uM) is inactive: 0.0144 and the TEAD-luciferase reporter activity (compound concentration: 10 uM) was inactive: 0.662.

For the molecule `O=C(O)CCCCCc1cccc2cncn12` [Pirmagrel], the TEAD-luciferase reporter activity reads like this: (compound concentration: 200 nM) inactive: -0.568; (compound concentration: 2 uM) inactive: -0.474; (compound concentration: 10 uM) inactive: 0.118.

As for `CC(=O)N1CCC(c2nccnc2Oc2ccc(C(=O)c3nc4ccccc4[nH]3)cc2)CC1`, the TEAD-luciferase reporter activity by setting is: (compound concentration: 200 nM) inactive: -1.42; (compound concentration: 2 uM) inactive: -1.24; (compound concentration: 10 uM) inactive: 4.26.

As to `CCOC(=O)C1CCN(c2nc(N(C)S(=O)(=O)c3cccc4ccccc34)ccc2[N+](=O)[O-])CC1`, the TEAD-luciferase reporter activity is inactive: -0.777 (compound concentration: 200 nM), inactive: 2.35 (compound concentration: 2 uM) and inactive: -0.392 (compound concentration: 10 uM).
